{"source": "PubChem BioAssay AID1259405, NCATS | 2018", "test": "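Knock-downs that lift recombinant protein yield in hamster ovary cells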 (primary screen)", "cell system": "Chinese hamster CHO-K1 ovary cells with stable secreted eGFP expression", "reagent": "single siRNA against mouse genes, 0.8 pmol siRNA per well (2 µl of 400 nM stock)", "time to read-out": "3 days", "detection": "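Per-well intracellular GFP measured by laser scanning cytometry, plus viability from ATP luminescence, each relative to plate median of non-targeting control wells, in %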", "scale": "GFP, % of control: higher = more GFP per well, higher productivity; viability (ATP), % of control: higher = more viable cells (more ATP)", "active means": "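a knock-down is called active if GFP reaches 120% or more of non-targeting control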", "note": "The whole screen tested about 50,000 reagents; this is a part drawn at random. About 4,000 of all reagents (8%) count as active. 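Mouse siRNA library applied to hamster cells; one well for each siRNA.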 Reagents against one gene are numbered here. No sequences are given here."}
{"target gene":"Ostm1","reagent":1,"GFP, % of control":150,"viability (ATP), % of control":89.6,"activity call":"active"}
{"target gene":"Ostm1","reagent":2,"GFP, % of control":102,"viability (ATP), % of control":73.1,"activity call":"inactive"}
{"target gene":"Ostm1","reagent":3,"GFP, % of control":130,"viability (ATP), % of control":79.5,"activity call":"active"}
{"target gene":"Lsm8","reagent":1,"GFP, % of control":42.8,"viability (ATP), % of control":62.7,"activity call":"inactive"}
{"target gene":"Lsm8","reagent":2,"GFP, % of control":105,"viability (ATP), % of control":105,"activity call":"inactive"}
{"target gene":"Lsm8","reagent":3,"GFP, % of control":67.8,"viability (ATP), % of control":84.8,"activity call":"inactive"}
{"target gene":"Adam15","reagent":1,"GFP, % of control":70.3,"viability (ATP), % of control":58.3,"activity call":"inactive"}
{"target gene":"Adam15","reagent":2,"GFP, % of control":36.8,"viability (ATP), % of control":32.1,"activity call":"inactive"}
{"target gene":"Adam15","reagent":3,"GFP, % of control":82.9,"viability (ATP), % of control":101,"activity call":"inactive"}
{"target gene":"Thada","reagent":1,"GFP, % of control":98.3,"viability (ATP), % of control":81.1,"activity call":"inactive"}
{"target gene":"Thada","reagent":2,"GFP, % of control":96.5,"viability (ATP), % of control":100,"activity call":"inactive"}
{"target gene":"Thada","reagent":3,"GFP, % of control":78.8,"viability (ATP), % of control":64.5,"activity call":"inactive"}
{"target gene":"Primpol","reagent":1,"GFP, % of control":54.6,"viability (ATP), % of control":54.9,"activity call":"inactive"}
{"target gene":"Primpol","reagent":2,"GFP, % of control":90.9,"viability (ATP), % of control":81,"activity call":"inactive"}
{"target gene":"Primpol","reagent":3,"GFP, % of control":129,"viability (ATP), % of control":58.9,"activity call":"active"}
{"target gene":"Zfp367","reagent":1,"GFP, % of control":29.2,"viability (ATP), % of control":42.9,"activity call":"inactive"}
{"target gene":"Zfp367","reagent":2,"GFP, % of control":70.4,"viability (ATP), % of control":81.2,"activity call":"inactive"}
{"target gene":"Zfp367","reagent":3,"GFP, % of control":88.1,"viability (ATP), % of control":60.8,"activity call":"inactive"}

2 successive entries already listed, quoted:
{"target gene":"Thada","reagent":2,"GFP, % of control":96.5,"viability (ATP), % of control":100,"activity call":"inactive"}
{"target gene":"Thada","reagent":3,"GFP, % of control":78.8,"viability (ATP), % of control":64.5,"activity call":"inactive"}
